Results from patent US8030444B2, “Microbicidal compositions comprising human CD38 polypeptides derived from the extracellular membrane-proximal region” (priority 2002, dated 2011).
At least one peptide structure holds a part that was inferred or is arguable (an end, a ring closure or a residue). Ends that are not written are not given here.

Legend:
[1] = system: primary HIV-1 isolates (R5); assay: Infection of PBMC by primary HIV-1 isolates, p24 ELISA; assay type: cell-based; details: primary HIV isolates in MT-4 cells and PBMC, 10 μM
[2] = biological target: T1, recombinant soluble human (rsh) CD4 (Homo sapiens, UniProt P01730); assay: Binding of biotin-conjugated peptide to plate-adsorbed rshCD4 (ELISA); details: 0.1-10 μM peptide
T1 construct: recombinant soluble human (rsh) CD4 (2 μg/ml) (R&D Systems); purchased R&D Systems
Experimental: Synthetic peptides from CD38 (SEQ ID NO:23) were conjugated with biotin (Pierce) as described in Wilchek, M., and Bayer, E. A., “Avidin-biotin technology,” Methods Enzymol., 184:1-746 (1990). Briefly, recombinant soluble human (rsh) CD4 (2 μg/ml) (R&D Systems) was adsorbed onto wells of 96-well-ELISA plates. Wells were then saturated with phosphate buffer saline (PBS)+2% bovine serum albumin (BSA), washed with PBS+1% BSA+0.05% Triton X-100, and the plates were incubated for 2 h at 37° C. with 100 μL of different concentrations (0.1-10 μM) of biotin-conjugated peptide. After six washes, 100 microl of streptavidin-conjugated horseradish peroxidase (HRP) from a commercially available HIV-1 p24 ELISA kit (NEN) diluted 1:100 in PBS+1% BSA was added to the wells for 30 min. at room temperature. After six more washes, the wells were incubated in the dark for 30 min. at room temperature with 100 μL of o-phenylenediamine (OPD tablets-Sigma), a chromogenic substrate for HRP diluted in phosphate-citrate buffer pH 5.0 as indicated in the Manufacturer's instructions. Then, the reaction was stopped by adding to each well 100 μL of 4 N sulfuric acid. Plates were read at 450 nm using an automated ELISA reader. […] Negative controls were run by incubating the wells with each of the titrated peptide in the absence of rshCD4 and performing the same steps described above. […]

SGPGTTKRFPETVLARCVKYTEIH [CD3851-74] was tested, and the “decrease of HIV-1IIIB replication” value (HIV-1IIIB; 10 μM, lowest concentration demonstrated to give this decrease) was “more than 50%”, the “inhibition of primary isolates, peptide only during virus adsorption” value [1] was “reproducible, though less persistent inhibitory effect” and the “association of biotin-conjugated peptide to rshCD4 (O.D.)” value [2] was “associated to rshCD4 in a manner dependent on the concentration”.

“TSHALSARFPETVLARCVKYTEIH [CD3858-74, reference compound]” was tested, and the “inhibition of HIV-1IIIB replication (in words)” value (HIV-1IIIB; MT-4 cells, p24 ELISA) was “no anti-HIV effects”.
